In paper PMC9232636, “Insights into the mechanism of action of the arbitrium communication system in SPbeta phages” (Nature Communications, 2022) one finds recognition of operator data, which are given here for one molecule.

Entries after “also recorded” stand apart in the source; their conditions may differ.

For the series, the system named is aimX-box^Phi. Kind of series: EMSA, AimR binding to aimX operator. Further details: species or system phage phi3T. The note with it: 50 mM tris pH8, 250 mM NaCl, repeated independently three times. (In general: A gel shift assay detects complexes by their altered migration in electrophoresis.)

B1: AimR^SPβ-I: AimR^SPβ receptor without tags (protein)
chain: MELIRIAMKKDLENDNSLMNKWATVAGLKNPNPLYDFLNHDGKTFNEFSSIVNIVKSQYPDREYELMKDYCLNLDVKTKAARSALEYADANMFFEIEDVLIDSMISCSNMKSKEYGKVYKIHRELSNSVITEFEAVKRLGKLNIKTPEMNSFSRLLLLYHYLSTGNFSPMAQLIKQIDLSEISENMYIRNTYQTRVHVLMSNIKLNENSLEECREYSKKALESTNILRFQVFSYLTIGNSLLFSNYELAQENFLKGLSISVQNENYNMIFQQALCFLNNVWRKENKWINFESDSIMDLQEQAHCFINFNENSKAKEVLDKLDLLVHNDNELAMHYYLKGRLEQNKACFYSSIEYFKKSNDKFLIRLPLLELQKMGENQKLLELLLL
For the molecule B1, the recognition of operator entry was “not the operator for phage phi3T; also recorded: neither recognised the AimR-binding box from phage phi3T”.
